# From publication doi:10.1101/772699 (bioRxiv, 2019)
# Experiments:
# APETALA3 (A. thaliana) = target: T1, APETALA3 (A. thaliana) (UniProt P35632); assay: two-hybrid
# T1 sequence: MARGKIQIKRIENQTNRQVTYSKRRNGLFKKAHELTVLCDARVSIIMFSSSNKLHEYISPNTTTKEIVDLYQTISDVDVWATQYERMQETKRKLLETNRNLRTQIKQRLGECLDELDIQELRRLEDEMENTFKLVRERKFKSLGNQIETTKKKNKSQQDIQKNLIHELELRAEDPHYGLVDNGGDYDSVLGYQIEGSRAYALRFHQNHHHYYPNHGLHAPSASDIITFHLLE
# … (A. thaliana) = target: T2, … (A. thaliana) (UniProt P48007); assay: two-hybrid
# T2 sequence: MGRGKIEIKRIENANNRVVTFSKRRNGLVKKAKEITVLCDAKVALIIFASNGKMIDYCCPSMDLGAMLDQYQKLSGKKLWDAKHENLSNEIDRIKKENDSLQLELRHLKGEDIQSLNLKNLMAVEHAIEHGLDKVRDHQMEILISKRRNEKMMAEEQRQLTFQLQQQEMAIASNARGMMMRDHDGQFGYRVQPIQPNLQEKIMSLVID
# [1] = target: T3, K-domain of SEP3 (SEP3^75-178) (A. thaliana) (UniProt O22456); assay: dynamic light scattering
# T3 sequence: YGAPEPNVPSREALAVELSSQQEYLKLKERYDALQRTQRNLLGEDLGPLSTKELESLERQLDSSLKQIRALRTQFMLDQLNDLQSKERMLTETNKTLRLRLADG
substance,measurement,setting,value
SAP54 lacking the putative turn region (amino acids 49-58),binding,APETALA3 (A. thaliana),no binding
same,binding,… (A. thaliana),no binding
SAP54 lacking the second predicted helix (amino acids 59-91) (domain or fragment),binding,APETALA3 (A. thaliana),no binding
same,binding,… (A. thaliana),no binding
SAP54-L27P,binding,APETALA3 (A. thaliana),no binding
same,binding,… (A. thaliana),no binding
SECRETED ASTER YELLOWS-WITCHES' BROOM PROTEIN 54 wildtype,binding,APETALA3 (A. thaliana),no binding
same,binding,… (A. thaliana),no binding
SAP54Δ81-91 (domain or fragment),binding,APETALA3 (A. thaliana),no binding
same,binding,… (A. thaliana),no binding
SAP54-L65P,binding,APETALA3 (A. thaliana),no binding
same,binding,… (A. thaliana),no binding
"SAP54 (purified, secreted part)",binding,[1],binds
SAP54 lacking the first predicted helix (amino acids 1-48 of the mature SAP54) (domain or fragment),binding,APETALA3 (A. thaliana),no binding
same,binding,… (A. thaliana),no binding
SAP54-I69P,binding,APETALA3 (A. thaliana),no binding
same,binding,… (A. thaliana),no binding

# No constants are given. Whether binding was seen depends on the method and setting. For some assays here: Binding can be weak; no strength is given.
